Source: the supplement of paper PMC10849652
The list shows a part of the results.

The chains behind the UniProt entries cited, without tags or fusion partners. Where a name states a change or a piece, a line headed by the entry shows the natural chain unless it says otherwise.
UniProt O14672: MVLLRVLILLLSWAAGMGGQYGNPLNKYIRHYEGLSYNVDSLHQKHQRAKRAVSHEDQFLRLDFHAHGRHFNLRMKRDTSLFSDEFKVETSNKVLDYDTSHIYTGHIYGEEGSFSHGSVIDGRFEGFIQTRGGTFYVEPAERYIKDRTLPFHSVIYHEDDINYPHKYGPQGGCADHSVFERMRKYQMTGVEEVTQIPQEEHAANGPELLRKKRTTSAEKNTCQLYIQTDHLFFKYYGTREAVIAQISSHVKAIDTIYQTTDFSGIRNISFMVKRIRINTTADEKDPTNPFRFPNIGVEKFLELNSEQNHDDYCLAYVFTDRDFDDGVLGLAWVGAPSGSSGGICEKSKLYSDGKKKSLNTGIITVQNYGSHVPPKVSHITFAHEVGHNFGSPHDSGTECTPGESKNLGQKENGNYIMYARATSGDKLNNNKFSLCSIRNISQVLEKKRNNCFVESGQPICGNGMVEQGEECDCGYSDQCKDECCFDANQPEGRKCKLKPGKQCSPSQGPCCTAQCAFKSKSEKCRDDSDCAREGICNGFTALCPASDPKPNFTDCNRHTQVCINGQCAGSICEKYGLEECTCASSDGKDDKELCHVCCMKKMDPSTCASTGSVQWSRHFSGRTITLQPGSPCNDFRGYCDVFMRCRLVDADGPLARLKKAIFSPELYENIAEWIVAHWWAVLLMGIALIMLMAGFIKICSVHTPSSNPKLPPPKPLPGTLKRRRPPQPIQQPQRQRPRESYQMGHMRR
UniProt Q9NZ32, whole entry, looked up: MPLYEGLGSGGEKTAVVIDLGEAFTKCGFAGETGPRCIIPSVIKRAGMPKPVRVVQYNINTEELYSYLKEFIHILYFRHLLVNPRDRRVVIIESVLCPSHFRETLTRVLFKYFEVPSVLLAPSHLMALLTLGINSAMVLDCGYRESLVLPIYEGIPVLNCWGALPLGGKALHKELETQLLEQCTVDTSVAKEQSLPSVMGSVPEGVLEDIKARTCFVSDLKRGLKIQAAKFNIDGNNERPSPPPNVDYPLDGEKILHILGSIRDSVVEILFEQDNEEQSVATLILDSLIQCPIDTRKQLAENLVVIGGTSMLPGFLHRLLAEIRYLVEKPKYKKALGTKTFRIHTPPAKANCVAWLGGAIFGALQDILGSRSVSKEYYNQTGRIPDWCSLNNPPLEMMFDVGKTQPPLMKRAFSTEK
UniProt P01023, whole entry, looked up: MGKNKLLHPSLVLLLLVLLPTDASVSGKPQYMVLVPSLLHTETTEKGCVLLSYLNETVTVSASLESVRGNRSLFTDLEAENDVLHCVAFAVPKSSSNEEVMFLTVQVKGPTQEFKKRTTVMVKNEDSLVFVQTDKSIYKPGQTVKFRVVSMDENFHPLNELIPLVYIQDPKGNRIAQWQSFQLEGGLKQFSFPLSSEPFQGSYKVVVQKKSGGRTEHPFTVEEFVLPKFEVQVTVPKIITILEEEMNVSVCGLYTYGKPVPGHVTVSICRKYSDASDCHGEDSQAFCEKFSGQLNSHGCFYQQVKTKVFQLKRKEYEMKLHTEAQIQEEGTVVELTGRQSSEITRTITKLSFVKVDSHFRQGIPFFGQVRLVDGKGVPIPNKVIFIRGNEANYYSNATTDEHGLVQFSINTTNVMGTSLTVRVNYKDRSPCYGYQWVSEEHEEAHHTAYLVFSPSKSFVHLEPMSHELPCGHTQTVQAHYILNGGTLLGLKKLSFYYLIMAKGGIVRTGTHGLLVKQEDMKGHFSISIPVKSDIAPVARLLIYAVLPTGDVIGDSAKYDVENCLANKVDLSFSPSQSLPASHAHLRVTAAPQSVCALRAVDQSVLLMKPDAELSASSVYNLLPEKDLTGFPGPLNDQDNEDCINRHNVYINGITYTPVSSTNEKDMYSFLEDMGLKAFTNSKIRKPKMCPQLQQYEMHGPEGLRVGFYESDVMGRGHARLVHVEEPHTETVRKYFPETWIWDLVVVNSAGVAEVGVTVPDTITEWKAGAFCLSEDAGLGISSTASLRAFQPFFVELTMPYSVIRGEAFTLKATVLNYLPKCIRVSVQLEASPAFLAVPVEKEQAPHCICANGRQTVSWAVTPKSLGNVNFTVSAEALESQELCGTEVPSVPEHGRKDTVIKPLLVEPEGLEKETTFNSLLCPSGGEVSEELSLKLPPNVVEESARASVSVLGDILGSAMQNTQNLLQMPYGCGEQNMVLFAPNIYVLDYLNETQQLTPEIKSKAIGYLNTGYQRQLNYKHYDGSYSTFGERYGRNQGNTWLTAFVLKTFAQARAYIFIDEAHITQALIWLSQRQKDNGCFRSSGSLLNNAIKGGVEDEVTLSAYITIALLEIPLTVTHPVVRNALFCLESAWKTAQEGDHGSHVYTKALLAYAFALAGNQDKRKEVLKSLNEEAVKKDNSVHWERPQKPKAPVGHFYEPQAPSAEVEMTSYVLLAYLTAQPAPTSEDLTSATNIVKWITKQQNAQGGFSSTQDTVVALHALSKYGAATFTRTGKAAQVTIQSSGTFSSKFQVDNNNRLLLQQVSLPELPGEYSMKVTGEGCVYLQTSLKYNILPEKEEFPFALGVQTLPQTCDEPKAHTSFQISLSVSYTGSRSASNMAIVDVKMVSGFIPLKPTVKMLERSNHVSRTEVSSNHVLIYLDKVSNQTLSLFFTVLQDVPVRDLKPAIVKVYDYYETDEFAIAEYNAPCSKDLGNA
UniProt Q03154: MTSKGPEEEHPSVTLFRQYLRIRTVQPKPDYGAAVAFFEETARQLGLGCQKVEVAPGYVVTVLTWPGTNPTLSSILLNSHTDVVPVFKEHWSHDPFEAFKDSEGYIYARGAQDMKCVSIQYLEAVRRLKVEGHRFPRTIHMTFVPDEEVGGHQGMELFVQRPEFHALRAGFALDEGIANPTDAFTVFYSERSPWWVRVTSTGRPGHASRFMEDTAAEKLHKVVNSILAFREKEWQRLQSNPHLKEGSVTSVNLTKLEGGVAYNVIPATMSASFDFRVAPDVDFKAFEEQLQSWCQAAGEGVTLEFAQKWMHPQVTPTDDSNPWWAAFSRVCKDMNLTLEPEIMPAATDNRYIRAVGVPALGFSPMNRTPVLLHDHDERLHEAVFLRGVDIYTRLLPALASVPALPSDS
UniProt Q9NRN7: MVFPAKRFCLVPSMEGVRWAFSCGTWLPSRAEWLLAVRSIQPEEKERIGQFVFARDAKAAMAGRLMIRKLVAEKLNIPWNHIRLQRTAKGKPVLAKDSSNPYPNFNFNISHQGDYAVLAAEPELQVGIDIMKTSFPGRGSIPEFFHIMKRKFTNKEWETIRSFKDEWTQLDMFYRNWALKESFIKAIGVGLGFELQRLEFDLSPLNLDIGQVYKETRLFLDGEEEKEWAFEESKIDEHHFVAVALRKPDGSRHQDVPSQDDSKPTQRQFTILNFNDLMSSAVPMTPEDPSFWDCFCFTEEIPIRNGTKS
UniProt O75027: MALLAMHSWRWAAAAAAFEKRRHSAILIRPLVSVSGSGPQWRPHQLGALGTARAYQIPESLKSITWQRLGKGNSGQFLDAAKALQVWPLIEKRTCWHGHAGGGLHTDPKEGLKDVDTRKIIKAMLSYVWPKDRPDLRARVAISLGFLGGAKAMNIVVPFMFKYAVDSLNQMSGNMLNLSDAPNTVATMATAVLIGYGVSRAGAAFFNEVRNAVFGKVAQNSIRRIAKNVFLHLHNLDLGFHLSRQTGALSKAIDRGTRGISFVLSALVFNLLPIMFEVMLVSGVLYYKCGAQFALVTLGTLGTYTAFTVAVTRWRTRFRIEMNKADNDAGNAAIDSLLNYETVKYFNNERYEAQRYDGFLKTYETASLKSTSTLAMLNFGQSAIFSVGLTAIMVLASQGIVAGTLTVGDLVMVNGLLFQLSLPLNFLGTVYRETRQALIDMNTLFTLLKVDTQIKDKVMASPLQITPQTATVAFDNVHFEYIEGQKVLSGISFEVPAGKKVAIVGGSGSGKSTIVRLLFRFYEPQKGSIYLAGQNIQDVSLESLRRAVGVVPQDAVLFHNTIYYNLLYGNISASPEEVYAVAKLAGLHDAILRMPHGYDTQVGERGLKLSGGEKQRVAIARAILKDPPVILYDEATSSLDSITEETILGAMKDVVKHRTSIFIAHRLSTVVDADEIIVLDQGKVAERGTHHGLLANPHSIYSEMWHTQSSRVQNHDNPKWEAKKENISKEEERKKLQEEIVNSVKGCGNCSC
UniProt P21399: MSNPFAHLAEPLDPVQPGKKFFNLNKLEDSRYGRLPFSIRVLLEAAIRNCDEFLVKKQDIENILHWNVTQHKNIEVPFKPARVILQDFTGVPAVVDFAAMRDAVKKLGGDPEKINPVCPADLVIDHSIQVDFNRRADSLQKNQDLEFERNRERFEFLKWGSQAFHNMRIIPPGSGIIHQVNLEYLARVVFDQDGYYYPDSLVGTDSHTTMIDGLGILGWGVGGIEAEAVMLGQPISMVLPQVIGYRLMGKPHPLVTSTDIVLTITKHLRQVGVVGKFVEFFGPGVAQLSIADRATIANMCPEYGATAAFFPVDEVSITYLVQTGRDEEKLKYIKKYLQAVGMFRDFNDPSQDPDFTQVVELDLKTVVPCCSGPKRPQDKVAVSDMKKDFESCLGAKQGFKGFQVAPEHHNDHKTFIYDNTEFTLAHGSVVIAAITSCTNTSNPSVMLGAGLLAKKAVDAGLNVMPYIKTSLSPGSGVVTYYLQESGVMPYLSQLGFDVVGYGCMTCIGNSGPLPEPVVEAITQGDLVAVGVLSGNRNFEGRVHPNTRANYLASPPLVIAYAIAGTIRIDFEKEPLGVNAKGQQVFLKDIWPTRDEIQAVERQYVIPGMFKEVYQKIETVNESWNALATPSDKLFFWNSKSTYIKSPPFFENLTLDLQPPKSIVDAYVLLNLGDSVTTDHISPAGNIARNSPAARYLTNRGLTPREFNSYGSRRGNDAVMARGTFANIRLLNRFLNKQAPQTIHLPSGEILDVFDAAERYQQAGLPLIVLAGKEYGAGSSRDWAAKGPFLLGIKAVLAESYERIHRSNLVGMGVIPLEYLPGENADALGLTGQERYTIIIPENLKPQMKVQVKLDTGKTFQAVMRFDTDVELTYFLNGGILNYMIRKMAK
UniProt P09110: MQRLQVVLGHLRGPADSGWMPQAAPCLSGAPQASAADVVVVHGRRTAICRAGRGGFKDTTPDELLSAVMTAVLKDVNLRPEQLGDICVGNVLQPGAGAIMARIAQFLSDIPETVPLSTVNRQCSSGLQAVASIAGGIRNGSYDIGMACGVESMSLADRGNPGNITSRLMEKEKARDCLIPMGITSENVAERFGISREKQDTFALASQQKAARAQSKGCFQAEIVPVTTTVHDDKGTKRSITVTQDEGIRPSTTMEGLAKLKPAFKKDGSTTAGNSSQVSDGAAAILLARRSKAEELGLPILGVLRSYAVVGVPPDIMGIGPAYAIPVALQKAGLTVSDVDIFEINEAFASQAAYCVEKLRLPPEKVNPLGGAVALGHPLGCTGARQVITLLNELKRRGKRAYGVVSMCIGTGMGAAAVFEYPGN
UniProt Q7Z6V5: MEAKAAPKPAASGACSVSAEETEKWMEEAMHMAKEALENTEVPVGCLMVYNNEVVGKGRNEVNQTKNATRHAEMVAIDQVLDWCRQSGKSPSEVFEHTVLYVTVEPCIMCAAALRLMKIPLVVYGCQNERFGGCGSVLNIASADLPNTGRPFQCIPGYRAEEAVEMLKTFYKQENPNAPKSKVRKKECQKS
UniProt P49588, whole entry, looked up: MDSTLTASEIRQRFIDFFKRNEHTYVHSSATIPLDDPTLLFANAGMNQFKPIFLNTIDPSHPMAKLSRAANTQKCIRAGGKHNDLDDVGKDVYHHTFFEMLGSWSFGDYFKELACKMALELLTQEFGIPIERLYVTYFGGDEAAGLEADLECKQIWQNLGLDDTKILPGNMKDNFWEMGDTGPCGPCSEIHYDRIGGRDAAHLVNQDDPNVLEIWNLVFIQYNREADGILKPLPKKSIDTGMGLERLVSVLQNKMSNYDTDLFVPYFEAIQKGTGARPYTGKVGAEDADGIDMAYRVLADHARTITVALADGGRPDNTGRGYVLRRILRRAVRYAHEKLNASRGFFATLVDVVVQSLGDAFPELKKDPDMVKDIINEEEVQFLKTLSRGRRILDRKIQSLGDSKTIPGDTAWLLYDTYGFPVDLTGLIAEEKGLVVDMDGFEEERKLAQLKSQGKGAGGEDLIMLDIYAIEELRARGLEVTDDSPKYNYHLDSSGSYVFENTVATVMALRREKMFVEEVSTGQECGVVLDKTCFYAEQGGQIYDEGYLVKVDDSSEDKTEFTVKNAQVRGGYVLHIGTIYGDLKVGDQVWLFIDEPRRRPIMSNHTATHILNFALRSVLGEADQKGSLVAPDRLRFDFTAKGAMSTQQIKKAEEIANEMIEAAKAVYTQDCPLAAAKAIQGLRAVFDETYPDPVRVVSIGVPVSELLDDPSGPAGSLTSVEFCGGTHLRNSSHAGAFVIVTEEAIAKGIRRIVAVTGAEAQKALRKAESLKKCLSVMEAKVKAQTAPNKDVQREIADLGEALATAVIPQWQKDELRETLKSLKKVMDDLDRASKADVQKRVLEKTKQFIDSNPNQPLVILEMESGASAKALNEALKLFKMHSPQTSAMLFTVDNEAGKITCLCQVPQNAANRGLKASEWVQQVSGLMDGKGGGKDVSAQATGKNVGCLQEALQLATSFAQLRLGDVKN

The targets below were run with Cn1cc(-c2ccc3nnc(C(F)(F)c4ccc5ncccc5c4)n3n2)cn1 (assay: log2 fold change, soluble protein after heating vs DMSO (PISA); higher = thermal stabilisation; K562 cells, 10 uM, 30 min; active = over 0.2 and 3.5 SD of the protein, either way, in both replicates (recomputed)).
Outline: (§1)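 Values are thermal stability changes relative to control samples and are taken from duplicates. They are stated as log2 fold changes. Before quantification by TMTpro 16plex LC-MS/MS with equalised channel sums, K562 cells at 2×10^6 cells/mL were treated with 10 μM compound for 30 min, heated in aliquots for 3 min across 48°C-58°C, pooled, extracted in PBS with 0.5% NP-40 at 4°C, and centrifuged at 21,000xg for 90 min to give the soluble supernatant.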

| Target | log2 fold change |
| --- | --- |
| ACACA isoform 4 (UniProt Q13085) | inactive: -0.08 |
| ACSS2 isoform 2 (UniProt Q9NR19) | inactive: -0.018 |
| ACOX1 isoform 2 (UniProt Q15067) | inactive: 0.029 |
| ACAT1 (UniProt P24752) | inactive: 0.022 |
| ACTR2 (UniProt P61160) | inactive: -0.014 |
| ACADS (UniProt P16219) | inactive: -0.024 |
| ADAM10 (UniProt O14672) | inactive: 0.003 |
| ABHD12 isoform 2 (UniProt Q8N2K0) | inactive: 0.021 |
| ADAR isoform 4 (UniProt P55265) | inactive: -0.101 |
| ACTR10 (UniProt Q9NZ32) | inactive: -0.032 |
| ABLIM1 (UniProt O14639) | inactive: -0.061 |
| ABCF3 (UniProt Q9NUQ8) | inactive: -0.072 |
| ABRAXAS2 (UniProt Q15018) | inactive: 0.005 |
| ACTA1 (UniProt P68133) | inactive: 0.007 |
| ADAM17 (UniProt P78536) | inactive: -0.014 |
| A2M (UniProt P01023) | inactive: -0.124 |
| ACADSB (UniProt P45954) | inactive: -0.032 |
| ACOT8 (UniProt O14734) | inactive: -0.029 |

| Target | log2 fold change |
| --- | --- |
| ABCC4 (UniProt O15439) | inactive: 0.02 |
| ACAD8 (UniProt Q9UKU7) | inactive: 0.073 |
| ACY1 (UniProt Q03154) | inactive: 0.008 |
| AASDHPPT (UniProt Q9NRN7) | inactive: -0.035 |
| ACTL6A (UniProt O96019) | inactive: 0.013 |
| ABCB7 isoform 2 (UniProt O75027) | inactive: 0.002 |
| ADAL (UniProt Q6DHV7) | inactive: 0.109 |
| ACTR6 (UniProt Q9GZN1) | inactive: 0.371 |
| ACO1 (UniProt P21399) | inactive: -0.005 |
| ACTR3 (UniProt P61158) | inactive: -0.02 |
| ABCD3 (UniProt P28288) | inactive: 0.008 |
| ACAA1 (UniProt P09110) | inactive: -0.008 |
| ABCE1 (UniProt P61221) | inactive: 0.005 |
| ADAT2 (UniProt Q7Z6V5) | inactive: 0.015 |
| ABCF1 (UniProt Q8NE71) | inactive: -0.114 |
| ACTN4 (UniProt O43707) | inactive: -0.017 |
| AARS (UniProt P49588) | inactive: 0.022 |
| ACTL8 (UniProt Q9H568) | inactive: 0.015 |

Each target was assayed with Cn1cncc1[C@@](N)(c1ccc(Cl)cc1)c1ccc2c(c1)c(-c1cccc(Cl)c1)cc(=O)n2C [tipifarnib] in the same assay as above.
Outline: as §1

| Target | log2 fold change |
| --- | --- |
| ACACA isoform 4 (UniProt Q13085) | inactive: -0.134 |
| ACSS2 isoform 2 (UniProt Q9NR19) | inactive: -0.077 |
| ACOX1 isoform 2 (UniProt Q15067) | inactive: -0.017 |
| ACAT1 (UniProt P24752) | inactive: -0.03 |
| ACTR2 (UniProt P61160) | inactive: -0.001 |
| ACADS (UniProt P16219) | inactive: 0.016 |
| ADAM10 (UniProt O14672) | inactive: 0.023 |
| ABHD12 isoform 2 (UniProt Q8N2K0) | inactive: 0.101 |
| ADAR isoform 4 (UniProt P55265) | inactive: 0.087 |
| ACTR10 (UniProt Q9NZ32) | inactive: 0.028 |
| ABLIM1 (UniProt O14639) | inactive: -0.049 |
| ABCF3 (UniProt Q9NUQ8) | inactive: -0.013 |
| ABRAXAS2 (UniProt Q15018) | inactive: 0.01 |
| ACTA1 (UniProt P68133) | inactive: 0.002 |
| ADAM17 (UniProt P78536) | inactive: 0.096 |
| A2M (UniProt P01023) | inactive: 0.02 |
| ACADSB (UniProt P45954) | inactive: -0.011 |
| ACOT8 (UniProt O14734) | inactive: -0.012 |

| Target | log2 fold change |
| --- | --- |
| ABCC4 (UniProt O15439) | inactive: -0.002 |
| ACAD8 (UniProt Q9UKU7) | inactive: 0.034 |
| ACY1 (UniProt Q03154) | inactive: -0.017 |
| AASDHPPT (UniProt Q9NRN7) | inactive: -0.074 |
| ACTL6A (UniProt O96019) | inactive: -0.036 |
| ABCB7 isoform 2 (UniProt O75027) | inactive: -0.138 |
| ADAL (UniProt Q6DHV7) | inactive: -0.008 |
| ACTR6 (UniProt Q9GZN1) | inactive: -0.025 |
| ACO1 (UniProt P21399) | inactive: -0.01 |
| ACTR3 (UniProt P61158) | inactive: -0.017 |
| ABCD3 (UniProt P28288) | inactive: 0.024 |
| ACAA1 (UniProt P09110) | inactive: -0.002 |
| ABCE1 (UniProt P61221) | inactive: -0.002 |
| ADAT2 (UniProt Q7Z6V5) | inactive: -0.013 |
| ABCF1 (UniProt Q8NE71) | inactive: -0.031 |
| ACTN4 (UniProt O43707) | inactive: 0.011 |
| AARS (UniProt P49588) | inactive: -0.03 |
| ACTL8 (UniProt Q9H568) | inactive: 0.089 |
